Experimental data: PubChem BioAssay AID1259424 (University of Nebraska Medical Center, 2018)
This is one part, drawn at random, of about 14,000 reagents tested. 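Higher correlation or smaller distance means closer resemblance to KSR1 loss; control wells, including KSR1 knockdowns, recur on many plates.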 The numbers tell different reagents against one gene apart. Further read-outs or replicates are left out here. The record does not give: the time to read-out.

Test: 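Rank knockdowns across the genome by resemblance to the KSR1 depletion profile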 (primary screen)
Cell system: human HCT116 colon cancer cells
Knock-down reagent: siRNA pool against human genes, 50 nM
Detection: 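Log2 levels of six mRNAs (branched-DNA multiplex), adjusted by two reference genes and the non-targeting median, then scored against the average KSR1 knockdown pattern as Pearson r and euclidean distance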
Reading the numbers: mean correlation with KSR1 profile: higher = expression change more like KSR1 knockdown

mean correlation with KSR1 profile, by target and reagent
CEP15 (centrosomal protein 15): #1 -0.776
AIRE (autoimmune regulator): #1 -0.0135
RAMP2 (receptor activity modifying protein 2): #1 0.287
HCST (hematopoietic cell signal transducer): #1 -0.505
POMZP3 (POM121 and ZP3 fusion): #1 -0.496
CDCA4 (cell division cycle associated 4): #1 -0.225
ZNF280D (zinc finger protein 280D): #1 -0.659
KCTD3 (potassium channel tetramerization domain containing 3): #1 -0.341
CASP14 (caspase 14): #1 -0.45
SMPD3 (sphingomyelin phosphodiesterase 3): #1 0.307
MAN2B2 (mannosidase alpha class 2B member 2): #1 0.136
IFNGR2 (interferon gamma receptor 2): #1 0.083
KLK11 (kallikrein related peptidase 11): #1 -0.59
DDAH2 (DDAH family member 2, ADMA-independent): #1 -0.525
ANGPTL1 (angiopoietin like 1): #1 -0.808
METTL9 (methyltransferase 9, His-X-His N1(pi)-histidine): #1 -0.0594
POLR3E (RNA polymerase III subunit E): #1 -0.0499
GPR107 (G protein-coupled receptor 107): #1 -0.177
GTPBP6 (GTP binding protein 6): #1 -0.484
RAB34 (RAB34, member RAS oncogene family): #1 0.836
ZNF117 (zinc finger protein 117): #1 0.281; #2 -0.424
MRPS27 (mitochondrial ribosomal protein S27): #1 -0.18
GTF2F2 (general transcription factor IIF subunit 2): #1 -0.715
FRZB (frizzled related protein): #1 0.359
KCNJ11 (potassium inwardly rectifying channel subfamily J member 11): #1 0.189
GPR108 (G protein-coupled receptor 108): #1 0.183
ZNF544 (zinc finger protein 544): #1 -0.376
ENTPD2 (ectonucleoside triphosphate diphosphohydrolase 2): #1 -0.369
WBP11 (WW domain binding protein 11): #1 -0.642
LAT (linker for activation of T cells): #1 -0.145
PIAS1 (protein inhibitor of activated STAT 1): #1 0.00593
MBTPS2 (membrane bound transcription factor peptidase, site 2): #1 -0.156
RPL19 (ribosomal protein L19): #1 0.51
CA5A (carbonic anhydrase 5A): #1 -0.0674
TENT5A (terminal nucleotidyltransferase 5A): #1 -0.572
HOXC8 (homeobox C8): #1 0.405
SPINK2 (serine peptidase inhibitor Kazal type 2): #1 0.107
CPA3 (carboxypeptidase A3): #1 0.0182
CRYGB (crystallin gamma B): #1 0.607
OPTC (opticin): #1 -0.679
LARP1B (La ribonucleoprotein 1B): #1 -0.174
IL5 (interleukin 5): #1 0.624
IGF2R (insulin like growth factor 2 receptor): #1 0.00405
CA12 (carbonic anhydrase 12): #1 -0.61
CYSTM1 (cysteine rich transmembrane module containing 1): #1 0.598
PPM1E (protein phosphatase, Mg2+/Mn2+ dependent 1E): #1 0.402
FCRL2 (Fc receptor like 2): #1 0.528
PROK2 (prokineticin 2): #1 0.688
MACF1 (microtubule actin crosslinking factor 1): #1 0.348

Reformatted: entries from further up
target | reagent | mean correlation with KSR1 profile
MBTPS2 (membrane bound transcription factor peptidase, site 2) | 1 | -0.156
RPL19 (ribosomal protein L19) | 1 | 0.51
CA5A (carbonic anhydrase 5A) | 1 | -0.0674
TENT5A (terminal nucleotidyltransferase 5A) | 1 | -0.572
HOXC8 (homeobox C8) | 1 | 0.405
SPINK2 (serine peptidase inhibitor Kazal type 2) | 1 | 0.107
CPA3 (carboxypeptidase A3) | 1 | 0.0182
